No constants are given. Whether binding was seen depends on the method and setting. Tags and fused reporters may be left off the sequences shown.
Biological target: T1, GST-TRIM34 (UniProt Q9BYJ4)
T1 sequence: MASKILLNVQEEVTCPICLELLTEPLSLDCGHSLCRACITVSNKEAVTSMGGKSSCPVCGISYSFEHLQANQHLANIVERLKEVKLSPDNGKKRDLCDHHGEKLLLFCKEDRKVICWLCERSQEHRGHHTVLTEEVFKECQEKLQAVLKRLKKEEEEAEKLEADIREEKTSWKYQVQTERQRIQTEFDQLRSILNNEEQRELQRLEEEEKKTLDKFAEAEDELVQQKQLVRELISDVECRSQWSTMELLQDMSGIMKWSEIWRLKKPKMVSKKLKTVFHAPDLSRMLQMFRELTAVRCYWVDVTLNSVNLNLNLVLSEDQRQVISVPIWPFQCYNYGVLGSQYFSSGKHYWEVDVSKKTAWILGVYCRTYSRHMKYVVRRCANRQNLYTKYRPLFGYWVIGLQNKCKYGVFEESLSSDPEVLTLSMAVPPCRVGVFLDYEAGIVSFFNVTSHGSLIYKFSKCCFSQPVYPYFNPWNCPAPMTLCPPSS
Experiment: pull-down; purified GST-TRIM34, His-RIPK3 and His-ZBP1 mixed (3.2 nM) in various combinations, immunoprecipitated with the indicated antibody, Western blot; both purified

The chains behind the UniProt entries cited, without tags or fusion partners.
UniProt Q9Y572: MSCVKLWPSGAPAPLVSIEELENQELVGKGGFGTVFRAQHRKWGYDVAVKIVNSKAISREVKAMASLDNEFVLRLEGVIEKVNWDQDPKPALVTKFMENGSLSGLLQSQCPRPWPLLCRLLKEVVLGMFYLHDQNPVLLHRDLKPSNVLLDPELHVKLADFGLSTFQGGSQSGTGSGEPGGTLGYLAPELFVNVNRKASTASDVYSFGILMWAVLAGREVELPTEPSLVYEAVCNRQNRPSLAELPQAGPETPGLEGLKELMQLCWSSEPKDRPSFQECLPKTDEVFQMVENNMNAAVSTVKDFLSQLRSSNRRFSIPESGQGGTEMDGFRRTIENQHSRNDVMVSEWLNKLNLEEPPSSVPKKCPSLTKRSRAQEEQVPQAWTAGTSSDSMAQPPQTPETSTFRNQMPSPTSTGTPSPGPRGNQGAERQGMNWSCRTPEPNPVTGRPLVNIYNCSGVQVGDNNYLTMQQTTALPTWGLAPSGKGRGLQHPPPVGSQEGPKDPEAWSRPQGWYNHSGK

binding: no binding (tested: 3.2 nM)
Substance: His-RIPK3 (from UniProt Q9Y572 1-518)

Source: publication PMC8867111
